Among the data in PMC7819943, “Rice protein-binding microarrays: a tool to detect cis-acting elements near promoter regions in rice” are binding signal values, retold here.

Some of the results follow.

The experiment deals with T1, OsSMF1 (Oryza sativa, UniProt Q6ZLB0 1-436).
T1 sequence: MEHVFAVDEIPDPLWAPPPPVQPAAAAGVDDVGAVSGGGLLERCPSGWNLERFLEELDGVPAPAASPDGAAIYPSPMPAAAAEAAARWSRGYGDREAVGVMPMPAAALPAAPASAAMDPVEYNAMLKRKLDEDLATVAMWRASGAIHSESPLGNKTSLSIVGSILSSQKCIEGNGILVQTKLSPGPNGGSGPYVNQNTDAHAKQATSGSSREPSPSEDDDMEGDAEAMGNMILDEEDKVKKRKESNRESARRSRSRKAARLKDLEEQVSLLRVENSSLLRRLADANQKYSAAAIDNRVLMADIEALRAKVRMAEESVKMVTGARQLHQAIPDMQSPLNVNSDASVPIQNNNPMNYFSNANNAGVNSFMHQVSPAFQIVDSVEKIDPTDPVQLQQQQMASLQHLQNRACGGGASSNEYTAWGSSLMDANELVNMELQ
As to the kind of experiment: protein-binding microarray (RPBM); PBS, 2% BSA, 51.3 ng/ul salmon testes DNA, 50 uM zinc acetate, 200 nM TF, 25 C, 1 h; high values mean tight binding. The note with it: protein: recombinant; tags: N-terminal polyhistidine and DsRed monomer fusion (pET32a); chain copies: 2; label: CyDye5-dUTP incorporated in the synthesized complementary strand; 3' TTTTT single-stranded linker to array surface; dsDNA, one strand shown. Put shortly: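 Binding signal is defined as the fluorescence intensity of each feature in arbitrary units, read on an Axon 4000B scanner. Transcription factors with N-terminal polyhistidine and DsRed fusions came from E. coli BL21-CodonPlus and were purified on Ni–NTA. They were incubated at 200 nM for 1 h at 25 °C on a custom Agilent array that had been made double-stranded with Cy5-dUTP, with 50 µM zinc acetate present, and the array was washed.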
Consider “CTAAGCCAACCAGTCGATATCATCGCCGTCATATTCAGCACGGAGTCACCTAGTGCAG”, for which the binding signal is 3410 fluorescence intensity (a.u.).
The value for “CTCACGGTTACGTGCCGAGATTCTCTTCTGCCACGTTGCACGGAGTCACCTAGTGCAG” was 7340 fluorescence intensity (a.u.).
Under “AACCGGTGAAACGTCCGATGTGGCATAGAAAATTTTATTTCGGAGTCACCTAGTGCAG” stands 3210 fluorescence intensity (a.u.); under “ACATCTACTTGTGATATTCTGAAGTCATCATCCATAGTCACGGAGTCACCTAGTGCAG”, 4710 fluorescence intensity (a.u.); under “CTACCCCGATTTATCCCGACGGCCACGCCACCCCACCTCTCGGAGTCACCTAGTGCAG”, 4220 fluorescence intensity (a.u.).
For the sequence “TAAAGGAGAAAATACGTCATTCTAAGTAGCGGATCACACACGGAGTCACCTAGTGCAG”, the binding signal was 3540 fluorescence intensity (a.u.).
The value for “CCTTCGTCGCTATGCCGTGGCGATCCCTGCAAAATCAAAGCGGAGTCACCTAGTGCAG” was 3580 fluorescence intensity (a.u.); that for “CGTGCACATCCTCGTCAGCTTCGTCGTCCACCACCGTCGACGGAGTCACCTAGTGCAG” was 5750 fluorescence intensity (a.u.).
“GTCTCCCACTCTCTCGCTACTGCCACCGCGGCGCCCCGCGCGGAGTCACCTAGTGCAG”: the binding signal is 4720 fluorescence intensity (a.u.).
The value for “CGACCGACCCTCGCCCGCCCACCGCCGTCACTCTCGTCTGCGGAGTCACCTAGTGCAG” was 3920 fluorescence intensity (a.u.).
In the case of “ATGCAGCCTCGACGCTTACTGTCACCACGATCGCATTCACCGGAGTCACCTAGTGCAG”, the binding signal is 3570 fluorescence intensity (a.u.).
The value for “GGTTCGCTCTCTCCGTCTCTCTGCTATGCCCCTCTCTTTCCGGAGTCACCTAGTGCAG” was 15500 fluorescence intensity (a.u.); that for “TGCGTCTCACCAGTCGCGCGAGCGAGCCGCGTGACGCGGTCGGAGTCACCTAGTGCAG” was 4370 fluorescence intensity (a.u.); that for “ATCGAGCGAGCGCGATATGATTGCATCATCGATCGAGCTCCGGAGTCACCTAGTGCAG” was 3680 fluorescence intensity (a.u.).
Under “TTTCAAAATATTCAGTTTGAGAATATGTAAATCTTATGGGCGGAGTCACCTAGTGCAG” stands 20100 fluorescence intensity (a.u.).
Under “AATCTACTTCCTCCGTTTTATGTTATAAGACTTTCTAGCACGGAGTCACCTAGTGCAG” stands 3140 fluorescence intensity (a.u.); under “CAAGGACAGGGGCTCCAATCAGGCAGGCATGCATGCATGCCGGAGTCACCTAGTGCAG”, 4370 fluorescence intensity (a.u.).
Regarding “CGTAGGATGGTTCAGTCTTAGAACATGGTCAGTTAGGGGACGGAGTCACCTAGTGCAG”, the binding signal was 16300 fluorescence intensity (a.u.).
The value for “CATTGTCTTCTCTTCAAAAGTGCTTTGAAGATTTGGAGTACGGAGTCACCTAGTGCAG” was 3540 fluorescence intensity (a.u.); that for “AGCTTCGGTTTTCTTACTCAGCACAACGGGGTGGTGGCGCCGGAGTCACCTAGTGCAG” was 5360 fluorescence intensity (a.u.).
On to “CCCTCTATAATTAGTGACTTGTAACCTCTTCTTCCCTTCCCGGAGTCACCTAGTGCAG”, for which the binding signal is 3820 fluorescence intensity (a.u.).
Turning to “GGTGCCACCCATTCTTTGTTGCCAACTTGCAGCATCAGTGCGGAGTCACCTAGTGCAG”, the binding signal is 3730 fluorescence intensity (a.u.).
Consider “TATACAATTGCCTTACCTGTCCCCACCTGTCACATGCCTCCGGAGTCACCTAGTGCAG”, for which the binding signal was 4640 fluorescence intensity (a.u.).
In the case of “GCCGGCTTCACCGTGCGCGTGCCGTCTTGGACCCACCACTCGGAGTCACCTAGTGCAG”, the binding signal is 3140 fluorescence intensity (a.u.).
Under “CTCGGATTTAATGCATGACTCTTTATTCTTCCACGCATGACGGAGTCACCTAGTGCAG” stands 3890 fluorescence intensity (a.u.); under “TTCCTCCTCCGGCCACCTCCGCCGGGCGTTGACCCCTACGCGGAGTCACCTAGTGCAG”, 3230 fluorescence intensity (a.u.); under “TGGTTGGTGGTGGTTAGCTAACACGCGGCATCTTCTCCTCCGGAGTCACCTAGTGCAG”, 4570 fluorescence intensity (a.u.).
Under “TTGTTCCTTCCCTTCTTTTGCTTCGGTACGTCATCCATGTCGGAGTCACCTAGTGCAG” stands 8520 fluorescence intensity (a.u.); under “AAGAAATCTCTTCATAGATCTCCTGATGAAAGAATTTAACCGGAGTCACCTAGTGCAG”, 3730 fluorescence intensity (a.u.).
Turning to “AGAAGTGAGGTGGAGGTGCGGGGAATCGAACCCCGTGCCTCGGAGTCACCTAGTGCAG”, the binding signal is 3800 fluorescence intensity (a.u.).
On to “CCCTGCCACGTTGGCTGGGCCATGCTGGCAGCGCTCAGCGCGGAGTCACCTAGTGCAG”, for which the binding signal is 14100 fluorescence intensity (a.u.).
The value for “GATCTTGTTTCAACGTCATTTTGCTGCGTCTGTTACAGTACGGAGTCACCTAGTGCAG” was 4110 fluorescence intensity (a.u.); that for “AACACCACACGCAGGTCGACCTCGACTGGAAGCGCCTCCTCGGAGTCACCTAGTGCAG” was 17700 fluorescence intensity (a.u.).
Under “TCCTTAAACTTGTGTAGGTGTGTCATCTAGGTCCCTGAACCGGAGTCACCTAGTGCAG” stands 3710 fluorescence intensity (a.u.).
In the case of “TGCTCCTACATGAAGGAACACATGGCATGTCGACTCAGGCCGGAGTCACCTAGTGCAG”, the binding signal is 3570 fluorescence intensity (a.u.).
The value for “GAATGGCTTGTCGACACGTCGGCATATGCTCATGCATATGCGGAGTCACCTAGTGCAG” was 12100 fluorescence intensity (a.u.); that for “CACGTAAGGGCCACATCAGTGCCACGTCAGATCAAAACCGCGGAGTCACCTAGTGCAG” was 29300 fluorescence intensity (a.u.).
The value for “TCAAACTAACCACGTCAGCGACACATCAGTTAAAACCGCACGGAGTCACCTAGTGCAG” was 12400 fluorescence intensity (a.u.).
With “TAAGATGGAAGTGAATCACATATCTTAACTTCACATTTAGCGGAGTCACCTAGTGCAG”, the binding signal is 3350 fluorescence intensity (a.u.).
Under “GTCGCTGTCGTCCTCGTCATCATCGCCGCCATCGCTGGATCGGAGTCACCTAGTGCAG” stands 8830 fluorescence intensity (a.u.).
Regarding “TGAAATTCATGAACGTGGCATGAATGAAGATTTTCTCATCCGGAGTCACCTAGTGCAG”, the binding signal is 3140 fluorescence intensity (a.u.).
The value for “ACGCTAGCCTTGCCGCCCTCGCGGAGGAATCCGCGCACAACGGAGTCACCTAGTGCAG” was 3320 fluorescence intensity (a.u.).
